In this test the target is T1, Xenopus Mcm10 (Xenopus laevis (endogenous in egg extract)) (UniProt Q5EAW4).
T1 sequence: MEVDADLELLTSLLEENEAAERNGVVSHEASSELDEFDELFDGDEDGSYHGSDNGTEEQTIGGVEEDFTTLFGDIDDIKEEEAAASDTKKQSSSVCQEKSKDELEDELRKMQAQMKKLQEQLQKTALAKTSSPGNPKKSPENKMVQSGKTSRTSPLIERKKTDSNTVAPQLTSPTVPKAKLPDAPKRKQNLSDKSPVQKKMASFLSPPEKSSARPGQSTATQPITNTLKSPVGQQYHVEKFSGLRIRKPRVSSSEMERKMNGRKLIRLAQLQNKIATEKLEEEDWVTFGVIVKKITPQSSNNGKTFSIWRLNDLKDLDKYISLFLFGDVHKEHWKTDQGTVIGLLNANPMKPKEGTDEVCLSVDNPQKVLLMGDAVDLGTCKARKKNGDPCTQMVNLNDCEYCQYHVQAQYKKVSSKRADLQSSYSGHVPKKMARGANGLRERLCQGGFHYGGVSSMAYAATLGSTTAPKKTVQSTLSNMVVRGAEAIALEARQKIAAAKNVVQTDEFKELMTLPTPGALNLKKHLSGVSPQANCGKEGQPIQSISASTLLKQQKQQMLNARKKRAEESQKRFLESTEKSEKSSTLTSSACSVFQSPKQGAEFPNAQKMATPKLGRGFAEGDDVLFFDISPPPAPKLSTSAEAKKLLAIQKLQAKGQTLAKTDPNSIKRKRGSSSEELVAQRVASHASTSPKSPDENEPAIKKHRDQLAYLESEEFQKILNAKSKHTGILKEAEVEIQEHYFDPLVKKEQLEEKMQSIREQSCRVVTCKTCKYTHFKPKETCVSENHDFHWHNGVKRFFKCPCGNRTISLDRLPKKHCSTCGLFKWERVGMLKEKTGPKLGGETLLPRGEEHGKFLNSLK
Put plainly: co-IP; chromatin isolated in S-phase (45 min) from Xenopus egg extract, with or without 50 uM camptothecin; DNA digested with Benzonase, sample sonicated; supernatant immunoprecipitated with Mcm10 antibody on protein G-Dynabeads, 1 h at 4°C; immunoblot.

Protein sequences, listed by entry. Tags and fused reporters are not part of them.
UniProt Q9DE14: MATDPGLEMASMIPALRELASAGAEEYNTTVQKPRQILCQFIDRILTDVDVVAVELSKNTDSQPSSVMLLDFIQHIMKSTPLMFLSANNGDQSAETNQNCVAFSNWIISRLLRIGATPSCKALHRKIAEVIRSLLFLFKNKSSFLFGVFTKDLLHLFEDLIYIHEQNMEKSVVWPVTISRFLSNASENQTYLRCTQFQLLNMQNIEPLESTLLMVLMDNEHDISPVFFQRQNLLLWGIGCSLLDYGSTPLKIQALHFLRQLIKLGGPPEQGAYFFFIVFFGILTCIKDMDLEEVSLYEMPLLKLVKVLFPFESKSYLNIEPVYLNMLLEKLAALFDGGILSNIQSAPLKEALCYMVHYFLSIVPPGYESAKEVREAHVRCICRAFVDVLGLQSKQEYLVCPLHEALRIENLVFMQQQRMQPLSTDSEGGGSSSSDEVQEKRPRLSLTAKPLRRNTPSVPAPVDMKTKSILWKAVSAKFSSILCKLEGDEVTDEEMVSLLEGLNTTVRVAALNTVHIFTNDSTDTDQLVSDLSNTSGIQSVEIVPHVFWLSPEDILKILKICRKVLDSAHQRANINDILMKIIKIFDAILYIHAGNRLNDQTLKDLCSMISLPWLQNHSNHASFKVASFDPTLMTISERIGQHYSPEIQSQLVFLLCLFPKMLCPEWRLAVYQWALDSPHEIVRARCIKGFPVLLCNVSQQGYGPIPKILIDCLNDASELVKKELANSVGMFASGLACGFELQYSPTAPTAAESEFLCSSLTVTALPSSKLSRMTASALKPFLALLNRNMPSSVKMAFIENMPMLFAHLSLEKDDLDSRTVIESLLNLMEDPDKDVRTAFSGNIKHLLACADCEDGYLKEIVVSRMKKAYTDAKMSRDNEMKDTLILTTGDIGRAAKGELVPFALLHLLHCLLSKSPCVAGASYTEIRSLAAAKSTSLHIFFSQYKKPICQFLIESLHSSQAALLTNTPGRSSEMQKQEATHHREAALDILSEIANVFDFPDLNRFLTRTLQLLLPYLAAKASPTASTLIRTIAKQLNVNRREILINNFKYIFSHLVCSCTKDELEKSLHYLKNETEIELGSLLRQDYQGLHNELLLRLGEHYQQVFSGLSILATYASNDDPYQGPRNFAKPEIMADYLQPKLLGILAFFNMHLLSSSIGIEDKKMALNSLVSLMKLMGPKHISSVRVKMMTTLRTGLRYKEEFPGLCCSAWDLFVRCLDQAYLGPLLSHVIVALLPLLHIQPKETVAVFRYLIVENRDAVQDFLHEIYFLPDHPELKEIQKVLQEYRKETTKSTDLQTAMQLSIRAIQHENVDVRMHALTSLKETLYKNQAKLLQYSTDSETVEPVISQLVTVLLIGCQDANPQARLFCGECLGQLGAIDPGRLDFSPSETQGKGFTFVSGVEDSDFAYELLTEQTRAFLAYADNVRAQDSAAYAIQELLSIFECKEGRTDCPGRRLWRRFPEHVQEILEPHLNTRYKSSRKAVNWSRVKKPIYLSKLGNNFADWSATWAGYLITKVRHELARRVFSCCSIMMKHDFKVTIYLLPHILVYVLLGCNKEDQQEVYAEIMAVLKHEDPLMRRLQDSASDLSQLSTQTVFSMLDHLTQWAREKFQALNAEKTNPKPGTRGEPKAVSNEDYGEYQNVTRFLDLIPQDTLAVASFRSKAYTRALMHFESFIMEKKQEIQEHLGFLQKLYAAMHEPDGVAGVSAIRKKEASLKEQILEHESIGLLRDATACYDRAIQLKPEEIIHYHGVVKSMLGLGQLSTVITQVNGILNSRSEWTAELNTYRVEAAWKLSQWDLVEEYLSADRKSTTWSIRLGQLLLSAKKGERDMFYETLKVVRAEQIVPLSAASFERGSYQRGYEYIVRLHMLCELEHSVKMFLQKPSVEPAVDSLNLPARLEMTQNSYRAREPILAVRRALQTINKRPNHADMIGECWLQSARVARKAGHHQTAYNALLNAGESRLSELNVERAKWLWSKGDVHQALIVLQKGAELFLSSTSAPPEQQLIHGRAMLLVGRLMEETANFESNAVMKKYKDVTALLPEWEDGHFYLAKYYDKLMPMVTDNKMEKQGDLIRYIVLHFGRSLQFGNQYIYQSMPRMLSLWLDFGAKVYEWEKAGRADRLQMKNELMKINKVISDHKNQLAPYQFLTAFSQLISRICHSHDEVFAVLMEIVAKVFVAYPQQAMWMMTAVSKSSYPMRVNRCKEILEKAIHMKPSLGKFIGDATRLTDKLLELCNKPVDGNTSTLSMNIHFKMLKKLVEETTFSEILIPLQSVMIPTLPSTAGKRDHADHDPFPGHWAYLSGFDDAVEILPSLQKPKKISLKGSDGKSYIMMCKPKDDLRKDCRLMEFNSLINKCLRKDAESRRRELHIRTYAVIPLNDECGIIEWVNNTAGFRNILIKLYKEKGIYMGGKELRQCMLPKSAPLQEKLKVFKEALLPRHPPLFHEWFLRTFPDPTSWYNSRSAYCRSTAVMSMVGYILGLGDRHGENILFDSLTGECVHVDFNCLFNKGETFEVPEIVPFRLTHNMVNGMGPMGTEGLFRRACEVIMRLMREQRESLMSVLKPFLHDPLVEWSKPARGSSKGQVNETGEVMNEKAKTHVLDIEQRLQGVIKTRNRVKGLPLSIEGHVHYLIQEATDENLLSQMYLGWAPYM

Results are given in words; binding and its absence hold for the method and conditions named. In cells and extracts the contact can be indirect. Some entries that bind do so weakly or less than the wild type.

Turning to ATR (from UniProt Q9DE14 1-2654), the binding entry is “binds”.

B1: Mre11 (protein, UniProt Q9W6K1 1-711)
chain: MSSSSSSLDDEDTFKILVATDIHLGFMEKDAVRGNDSFVAFDEILRLAQDNEVDFLLLGGDLFHDNKPSRRTLHICLEQLRKYCMGDRPIEFEVLSDQSVNFGYSKFPWVNYQDNNLNISLPVFSVHGNHDDPTGADALCALDILSSAGLVNHFGRATSVEKIDISPVLLQKGHSKIALYGLGSIPDERLYRMFVNKQVMMLRPREDESSWFNLFVIHQNRSKHGPTNYIPEQFLDEFLDLVIWGHEHECKIAPTRNEQQLFYVSQPGSSVATSLSPGEAEKKHVGLLRIKGKKMNMQKIPLQTVRQFFIEDLVLSDYPDIFNPDNPRVTQEIETFCIEKVEAMLDTAERERLGNPRQPDKPLIRLRVDYTGGFEPFNTLRFSQKFVDRTANPKDIIHFFRHKEQKDKKDSITINFGKIDSKPLLEGTTLRVEDLVKEYFKTAEKNVQLSLLTERGMGEAVQEFVDKEEKDALEELVKFQLEKTQRFLKERHIDAEEEKIDEEVRKFRETRKTNTNEEDEEVREAIQRARTHRSQAPDVEMSDEDDDALLRKVSLSDDEDVRASMPARGRGRGRARGGRGQSTTTRGTSRRGRGSASADQPSSGRATKATGKNMSILDAFKPSSRQPTARNVAKKTYSEDIEDDDSDLEEVSFTPSSVIESRRTSSTSTSYSRKSTQPQSQATKAHFFDDDDDEEDFDPFKKSGPSRRGRR
As to B1, the binding entry was “binds”.

These data come from publication PMC4993430.
